The record followed here is the supplement of paper PMC10032668.

Sequences of proteins named here, by UniProt entry; tags and fusion partners are left off.
RGPD5, Q99666, UniProt Q99666, whole entry: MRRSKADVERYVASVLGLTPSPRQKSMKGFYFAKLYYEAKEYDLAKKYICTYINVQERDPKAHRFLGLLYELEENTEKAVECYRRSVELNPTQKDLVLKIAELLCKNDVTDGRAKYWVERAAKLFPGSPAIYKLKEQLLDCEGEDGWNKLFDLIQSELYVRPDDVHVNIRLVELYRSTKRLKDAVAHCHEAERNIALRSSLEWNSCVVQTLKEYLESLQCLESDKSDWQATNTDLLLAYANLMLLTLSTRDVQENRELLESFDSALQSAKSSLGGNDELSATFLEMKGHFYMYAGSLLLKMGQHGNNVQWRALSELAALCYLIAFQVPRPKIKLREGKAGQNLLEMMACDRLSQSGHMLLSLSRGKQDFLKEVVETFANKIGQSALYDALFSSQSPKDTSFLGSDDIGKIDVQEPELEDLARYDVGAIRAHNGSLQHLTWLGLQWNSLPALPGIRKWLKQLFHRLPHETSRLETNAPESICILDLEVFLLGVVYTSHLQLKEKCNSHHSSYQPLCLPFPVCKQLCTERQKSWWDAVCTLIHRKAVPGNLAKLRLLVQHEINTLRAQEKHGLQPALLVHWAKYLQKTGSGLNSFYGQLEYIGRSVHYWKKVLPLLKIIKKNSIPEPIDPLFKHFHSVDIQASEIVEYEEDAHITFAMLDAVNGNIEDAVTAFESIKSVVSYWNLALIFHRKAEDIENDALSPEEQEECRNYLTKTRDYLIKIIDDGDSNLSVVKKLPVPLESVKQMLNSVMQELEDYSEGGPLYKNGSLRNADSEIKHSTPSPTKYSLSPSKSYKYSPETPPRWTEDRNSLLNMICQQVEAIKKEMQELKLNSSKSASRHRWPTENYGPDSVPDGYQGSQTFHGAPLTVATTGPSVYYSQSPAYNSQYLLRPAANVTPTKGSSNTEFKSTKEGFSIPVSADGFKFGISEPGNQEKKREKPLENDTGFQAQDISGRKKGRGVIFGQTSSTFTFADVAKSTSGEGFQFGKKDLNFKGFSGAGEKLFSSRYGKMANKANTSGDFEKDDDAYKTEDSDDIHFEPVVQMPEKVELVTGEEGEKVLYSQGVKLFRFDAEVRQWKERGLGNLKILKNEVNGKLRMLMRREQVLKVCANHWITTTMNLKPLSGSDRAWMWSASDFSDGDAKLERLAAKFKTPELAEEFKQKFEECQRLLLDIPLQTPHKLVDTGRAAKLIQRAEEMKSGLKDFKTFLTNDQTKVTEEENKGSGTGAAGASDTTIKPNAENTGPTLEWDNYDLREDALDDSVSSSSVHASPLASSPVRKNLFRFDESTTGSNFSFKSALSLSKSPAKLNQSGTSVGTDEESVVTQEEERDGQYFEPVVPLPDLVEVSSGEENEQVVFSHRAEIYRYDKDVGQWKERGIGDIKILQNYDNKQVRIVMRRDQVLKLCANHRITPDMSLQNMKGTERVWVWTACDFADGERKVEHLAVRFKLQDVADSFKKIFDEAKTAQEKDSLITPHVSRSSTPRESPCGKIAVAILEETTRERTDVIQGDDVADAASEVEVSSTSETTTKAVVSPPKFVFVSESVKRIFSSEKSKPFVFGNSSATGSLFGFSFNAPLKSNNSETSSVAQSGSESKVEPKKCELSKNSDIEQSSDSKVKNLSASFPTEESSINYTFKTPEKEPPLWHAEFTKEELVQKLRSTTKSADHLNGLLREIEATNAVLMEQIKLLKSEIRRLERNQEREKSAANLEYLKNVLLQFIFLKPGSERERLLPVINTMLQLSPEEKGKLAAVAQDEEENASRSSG

The other results are listed elsewhere or left out. Only hits are listed; about a third recur on repeated control peptides.

What all share (test): PRISMA enrichment of interactor (LFQ) in peptide spot vs all other peptide spots (log2 fold change); higher = stronger / more specific binding of the interactor to the peptide
One test addresses ABCF1, Q8NE71. As to the method:
(§1)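 PRISMA: 15-aa overlapping tiles (offset 8 aa) of 60 microproteins, plus SOS1/GLUT1 control peptides, were spot-synthesized on cellulose membranes in triplicate. Membranes were incubated with benzonase-treated HEK293T lysate, and bound proteins were identified by LC-MS/MS with LFQ. Enrichment is the log2 fold change of each protein in one spot versus all other spots. Only interactors passing the significance cutoff are listed.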

A further test deals with C11orf98, E9PRG8. As to the method:
as §1

The target of another test is CALD1, Q05682. How it is done: as §1
Another test deals with CCDC59, Q9P031. As to the method:
as §1

The target in the next test is CCDC86, Q9H6F5. As to the method: as §1
Another test has as its target CHMP2B, Q9UQN3. How it is done: as §1
A further test has as its target DDX6, P26196. As to the method: as §1
Another test has as its target LETM1, O95202. As to the method:
as §1

The next test has as its target NOL7, Q9UMY1. As to the method: as §1
For another test, the target named is SLC39A7, Q92504. How it is done: as §1
Another test has as its target TFB1M, Q8WVM0. As to the method: as §1
The next test concerns the target USP10, Q14694. As to the method:
as §1

The next test addresses XPOT, O43592. As to the method:
as §1

Another test addresses PDCD4, Q53EL6. As to the method:
as §1

The target of the next test is PKP2, Q99959. As to the method: as §1
Another test deals with POP4, O95707. As to the method:
as §1

In another test the target is PPP1CA, P62136. How it is done: as §1
Another test addresses PRPF31, Q8WWY3. How it is done:
as §1

For another test, the target named is PSMB1, P20618. How it is done:
as §1

The target in the next test is PUM1, Q14671. How it is done:
as §1

The next test concerns the target RAB8A, P61006. As to the method:
as §1

A further test has as its target RGPD5, Q99666. How it is done:
as §1

The target of another test is RHEB, Q15382. How it is done:
as §1

In a further test the target is RNF219, Q5W0B1. As to the method:
as §1

A further test concerns the target RNPS1, Q15287. How it is done:
as §1

A further test concerns the target SETD1A, O15047. How it is done: as §1
In the next test the target is SNRNP40, Q96DI7. How it is done: as §1
The next test deals with SPAST, Q9UBP0. As to the method: as §1
The next test has as its target SPCS2, Q15005. As to the method: as §1
The target in the next test is SURF6, O75683. How it is done:
as §1

The next test concerns the target UPF1, Q92900. How it is done: as §1
The target in another test is UTP20, O75691. How it is done:
as §1

In the next test the target is VMP1, Q96GC9. How it is done:
as §1

The target in a further test is WDR18, Q9BV38. As to the method: as §1
In a further test the target is ZC3HAV1, Q7Z2W4. How it is done:
as §1

As to GVCHSRLKDVFEELL [RP11-140K17.3], the “PRISMA enrichment of interactor (log2)” value with ABCF1, Q8NE71 turned out to be 5.73; with C11orf98, E9PRG8 it was 4.76; with CALD1, Q05682, 9; with CCDC59, Q9P031, 4.69; with CCDC86, Q9H6F5, 5.07; with CHMP2B, Q9UQN3 it was 6.07. In addition, the “PRISMA enrichment of interactor (log2)” value with DDX6, P26196 was 5.71; in the test with LETM1, O95202 it was 4.7; in the test with NOL7, Q9UMY1, 4.25; with SLC39A7, Q92504, 5.45; with TFB1M, Q8WVM0, 5.36; with USP10, Q14694 it was 6.23. For the same molecule, in the test with XPOT, O43592, the “PRISMA enrichment of interactor (log2)” value came out at 6.4.

With EVLKSKPNSSHWHTG [GAS5], the “PRISMA enrichment of interactor (log2)” value in the test with PDCD4, Q53EL6 was 3.99; with PKP2, Q99959, 6.3; with POP4, O95707, 3.89; with PPP1CA, P62136, 5.48; with PRPF31, Q8WWY3, 4.18; in the test with PSMB1, P20618, 5.84. The “PRISMA enrichment of interactor (log2)” value was 5.45 in the test with PUM1, Q14671; 8.97 in the test with RAB8A, P61006; 6.49 with RGPD5, Q99666; 4.85 with RHEB, Q15382; 4.8 with RNF219, Q5W0B1; 5.02 in the test with RNPS1, Q15287. The “PRISMA enrichment of interactor (log2)” value with SETD1A, O15047 is 5.79; with SLC39A7, Q92504 it was 4.98; with SNRNP40, Q96DI7, 8.97; in the test with SPAST, Q9UBP0 it was 4.69; with SPCS2, Q15005, 4.56; with SURF6, O75683, 4.88. Further, the “PRISMA enrichment of interactor (log2)” value stood at 4.9 with UPF1, Q92900; 6.66 in the test with UTP20, O75691; 3.82 with VMP1, Q96GC9; 4.81 with WDR18, Q9BV38; 6.39 in the test with ZC3HAV1, Q7Z2W4.
